Test results from patent US9388210B2, “Neuroactive 17(20)-Z-vinylcyano-substituted steroids, prodrugs thereof, and methods of treatment using same” (priority 2011, dated 2016).

Legend:
[1] = system: picrotoxin binding site on GABAA receptors; conditions: ± SEM
[2] = system: tadpole; experiment: Tadpole loss of righting reflex (LRR) and loss of swimming reflex (LSR); assay type: in vivo; conditions: for Tadpole LRR nHill: loss of righting reflex; for Tadpole LSR nHill: loss of swimming reflex

Compound: C[C@]12CC[C@@H](O)C[C@H]1CC[C@@H]1[C@@H]2CC[C@]2(C)/C(=C\C#N)CC[C@@H]12 [Compound 15a, [3α,5β,17(20)Z]-3-Hydroxypregn-17(20)-ene-21-nitrile]
- nHill, [35S]-TBPS binding [1]: 0.94 ± 0.14
- Tadpole LRR nHill [2]: −2.21 ± 0.34
- Tadpole LSR nHill [2]: −18.5 ± 0

Compound: C[C@]12CC[C@@H](O)C[C@@H]1CC[C@@H]1[C@@H]2CC[C@]2(C)/C(=C\C#N)CC[C@@H]12 [Compound 14a, [3α,5α,17(20)Z]-3-Hydroxypregn-17(20)-ene-21-nitrile]
- nHill, [35S]-TBPS binding [1]: 1.09 ± 0.14

Compound: C/C(C#N)=C1\CC[C@H]2[C@@H]3CC[C@H]4C[C@H](O)CC[C@]4(C)[C@H]3C(=O)C[C@]12C [Compound 6c, [3α,5α,17(20)Z]-3-Hydroxy-11-oxopregn-17(20)-ene-20-carbonitrile]
- Tadpole LRR nHill [2]: −2.47 ± 0.64
- Tadpole LSR nHill [2]: −33 ± 0

Compound: CO[C@H]1C[C@]2(C)/C(=C/C#N)CC[C@H]2[C@@H]2CC[C@H]3C[C@H](O)CC[C@]3(C)[C@H]21 [Compound 17b, [3α,5α,11β,17(20)E]-3-Hydroxy-11-methoxypregn-17(20)-en-21-nitrile]
- nHill, [35S]-TBPS binding [1]: 1.27 ± 0.30
- Tadpole LRR nHill [2]: −6.23 ± 14.2
- Tadpole LSR nHill [2]: −15.7 ± 0.9

Compound: C[C@]12CC[C@@H](O)C[C@@H]1CC[C@@H]1[C@@H]2CC[C@]2(C)/C(=C/C#N)CC[C@@H]12 [Compound 14b, [3α,5α,17(20)E]-3-Hydroxypregn-17(20)-ene-21-nitrile]
- nHill, [35S]-TBPS binding [1]: 0.97 ± 0.06
- Tadpole LRR nHill [2]: −4.29 ± 6.62

Compound: CO[C@H]1C[C@@]2(C)[C@@H](CC[C@@H]3[C@@H]2CC[C@]2(C)/C(=C/C#N)CC[C@@H]32)C[C@@H]1O [Compound 16b, [2β,3α,5α,17(20)E]-3-Hydroxy-2-methoxyandrost-17(20)-ene-21-nitrile]
- nHill, [35S]-TBPS binding [1]: 0.86 ± 0.10
- Tadpole LRR nHill [2]: −1.82 ± 0.49
- Tadpole LSR nHill [2]: −20.8 ± 0.5

Compound: C[C@]12CC[C@@H](O)C[C@@H]1CC[C@@H]1[C@@H]2C(=O)C[C@]2(C)/C(=C/C#N)CC[C@@H]12 [Compound 6b, [3α,5α,17(20)E]-3-Hydroxy-11-oxopregn-17(20)-ene-2′-nitrile]
- Tadpole LRR nHill [2]: −1.70 ± 1.15
- Tadpole LSR nHill [2]: −36 ± 0

Compound: CO[C@H]1C[C@@]2(C)[C@@H](CC[C@@H]3[C@@H]2CC[C@]2(C)/C(=C\C#N)CC[C@@H]32)C[C@@H]1O [Compound 16a, [2β,3α,5α,17(20)Z]-3-Hydroxy-2-methoxyandrost-17(20)-ene-21-nitrile]
- nHill, [35S]-TBPS binding [1]: 1.09 ± 0.05
- Tadpole LRR nHill [2]: −1.57 ± 0.43
- Tadpole LSR nHill [2]: −18.6 ± 0.4

Compound: C[C@]12CC[C@@H](O)C[C@H]1CC[C@@H]1[C@@H]2CC[C@]2(C)/C(=C/C#N)CC[C@@H]12 [Compound 15b, [(3α,5β,17(20)E]-3-Hydroxypregn-17(20)-ene-21-nitrile]
- nHill, [35S]-TBPS binding [1]: 1.10 ± 0.34
- Tadpole LRR nHill [2]: −4.28 ± 5.67
- Tadpole LSR nHill [2]: −33.2 ± 0.15

Compound: [3α,5α,17(20)E]-3-(Acetyloxy)-11-oxopregn-17(20)-ene-20-carbonitrile [Compound 6d]
- Tadpole LRR nHill [2]: −2.42 ± 0.24

Compound: CO[C@H]1C[C@]2(C)/C(=C\C#N)CC[C@H]2[C@@H]2CC[C@H]3C[C@H](O)CC[C@]3(C)[C@H]21 [Compound 17a, [3α,5α,11β,17(20)Z]-3-Hydroxy-11-methoxypregn-17(20)-ene-21-nitrile]
- nHill, [35S]-TBPS binding [1]: 1.51 ± 0.21
- Tadpole LRR nHill [2]: −2.26 ± 0.15
- Tadpole LSR nHill [2]: −36.3 ± 0.1

Compound: C[C@]12CC[C@@H](O)C[C@@H]1CC[C@@H]1[C@@H]2C(=O)C[C@]2(C)/C(=C\C#N)CC[C@@H]12 [Compound 6a, [3α,5α,17(20)Z]-3-Hydroxy-11-oxopregn-17(20)-ene-2′-nitrile]
- Tadpole LRR nHill [2]: −2.84 ± 0.77
- Tadpole LSR nHill [2]: −33 ± 0
